Results are given in words; binding and its absence hold for the method and conditions named. Some binding calls cover weakened binding; strength is not graded here.
Columns and labels:
[1] = target: T1, human αIIbβ3 integrin on transfected CHO K1 cells (human) (UniProt P08514+P05106); test: adhesion of αIIbβ3 CHO cells to adsorbed fibrinogen
[2] = target: T1, human αIIbβ3 integrin on transfected CHO K1 cells (human); test: adhesion of αIIbβ3 CHO K1 cells to adsorbed fibrinogen

By UniProt entry, the sequences of proteins in these tests, tags left out. Where a name states a change or a piece, a line headed by the entry shows the natural chain unless it says otherwise.
UniProt P08514: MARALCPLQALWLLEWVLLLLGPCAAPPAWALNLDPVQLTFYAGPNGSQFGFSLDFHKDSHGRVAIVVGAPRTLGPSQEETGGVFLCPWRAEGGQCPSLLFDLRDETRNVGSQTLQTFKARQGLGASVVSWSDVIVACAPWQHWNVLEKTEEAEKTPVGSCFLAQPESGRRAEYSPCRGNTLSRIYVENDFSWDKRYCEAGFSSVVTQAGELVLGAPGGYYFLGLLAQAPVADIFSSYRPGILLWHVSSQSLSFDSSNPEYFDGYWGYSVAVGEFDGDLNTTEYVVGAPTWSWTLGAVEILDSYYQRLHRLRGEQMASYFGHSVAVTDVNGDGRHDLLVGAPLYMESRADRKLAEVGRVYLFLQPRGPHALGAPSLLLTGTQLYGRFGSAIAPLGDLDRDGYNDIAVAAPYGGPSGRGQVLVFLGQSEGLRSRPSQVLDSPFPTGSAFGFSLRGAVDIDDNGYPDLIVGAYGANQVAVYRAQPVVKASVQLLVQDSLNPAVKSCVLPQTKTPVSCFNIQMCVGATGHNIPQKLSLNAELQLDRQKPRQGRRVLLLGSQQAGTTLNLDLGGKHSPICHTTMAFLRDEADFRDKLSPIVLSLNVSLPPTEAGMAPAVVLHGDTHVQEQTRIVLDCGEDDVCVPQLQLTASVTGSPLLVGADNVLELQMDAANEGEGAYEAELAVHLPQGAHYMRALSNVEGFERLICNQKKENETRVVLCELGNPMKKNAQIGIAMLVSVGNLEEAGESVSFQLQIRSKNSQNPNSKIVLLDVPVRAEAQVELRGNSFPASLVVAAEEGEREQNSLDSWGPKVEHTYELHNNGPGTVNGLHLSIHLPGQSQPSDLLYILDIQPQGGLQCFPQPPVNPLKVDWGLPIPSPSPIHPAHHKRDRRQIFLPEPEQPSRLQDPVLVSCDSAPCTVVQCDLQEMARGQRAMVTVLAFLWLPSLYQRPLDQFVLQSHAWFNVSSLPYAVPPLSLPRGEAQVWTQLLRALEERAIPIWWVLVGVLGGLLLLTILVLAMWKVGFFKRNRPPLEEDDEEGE
UniProt P05106: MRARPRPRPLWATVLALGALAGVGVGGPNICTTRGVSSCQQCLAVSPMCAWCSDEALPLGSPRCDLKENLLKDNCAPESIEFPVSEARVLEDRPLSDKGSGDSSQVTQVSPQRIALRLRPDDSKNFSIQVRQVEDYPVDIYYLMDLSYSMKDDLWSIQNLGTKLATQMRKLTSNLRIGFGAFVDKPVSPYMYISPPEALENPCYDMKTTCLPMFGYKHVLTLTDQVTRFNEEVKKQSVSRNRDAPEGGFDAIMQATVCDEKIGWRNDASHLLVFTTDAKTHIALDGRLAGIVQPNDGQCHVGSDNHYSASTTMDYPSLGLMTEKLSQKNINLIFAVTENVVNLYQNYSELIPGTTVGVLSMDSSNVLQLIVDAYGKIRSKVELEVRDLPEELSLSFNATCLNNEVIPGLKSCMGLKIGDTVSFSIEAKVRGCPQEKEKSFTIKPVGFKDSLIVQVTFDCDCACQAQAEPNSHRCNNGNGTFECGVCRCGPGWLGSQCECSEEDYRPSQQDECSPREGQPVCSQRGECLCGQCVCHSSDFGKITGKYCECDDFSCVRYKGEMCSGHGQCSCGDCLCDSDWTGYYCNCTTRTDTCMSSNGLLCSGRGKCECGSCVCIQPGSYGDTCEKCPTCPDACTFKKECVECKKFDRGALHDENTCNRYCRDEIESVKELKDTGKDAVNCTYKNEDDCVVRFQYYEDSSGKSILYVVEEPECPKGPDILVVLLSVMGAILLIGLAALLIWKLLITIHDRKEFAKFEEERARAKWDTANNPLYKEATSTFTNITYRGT
UniProt P02671: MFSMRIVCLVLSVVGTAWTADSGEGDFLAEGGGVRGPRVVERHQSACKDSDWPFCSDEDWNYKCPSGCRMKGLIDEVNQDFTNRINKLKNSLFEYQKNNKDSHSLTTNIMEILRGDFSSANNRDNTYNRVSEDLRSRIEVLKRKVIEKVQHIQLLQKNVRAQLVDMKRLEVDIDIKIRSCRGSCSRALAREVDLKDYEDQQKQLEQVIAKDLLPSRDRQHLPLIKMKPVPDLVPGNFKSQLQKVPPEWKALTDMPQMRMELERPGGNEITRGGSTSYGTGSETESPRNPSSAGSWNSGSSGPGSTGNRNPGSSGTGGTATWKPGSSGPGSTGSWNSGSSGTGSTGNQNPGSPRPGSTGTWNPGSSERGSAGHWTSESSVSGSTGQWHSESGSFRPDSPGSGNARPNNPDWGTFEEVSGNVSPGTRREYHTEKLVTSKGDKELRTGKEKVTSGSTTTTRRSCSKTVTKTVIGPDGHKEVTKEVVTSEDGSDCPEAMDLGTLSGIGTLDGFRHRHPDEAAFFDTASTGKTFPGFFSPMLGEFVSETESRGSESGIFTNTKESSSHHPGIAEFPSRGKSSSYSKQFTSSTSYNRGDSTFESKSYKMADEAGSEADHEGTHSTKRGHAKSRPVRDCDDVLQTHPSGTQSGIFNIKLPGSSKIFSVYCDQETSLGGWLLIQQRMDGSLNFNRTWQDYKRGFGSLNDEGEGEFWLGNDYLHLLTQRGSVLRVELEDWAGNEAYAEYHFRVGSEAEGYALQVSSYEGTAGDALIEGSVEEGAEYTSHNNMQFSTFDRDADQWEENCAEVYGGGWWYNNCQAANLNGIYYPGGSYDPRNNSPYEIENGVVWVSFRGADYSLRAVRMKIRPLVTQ

binding [1]: binds
binding [2]: binds
Substance: Human fibrinogen (Fbg), adsorbed on a hydrophobic (dodecanethiol) monolayer (from UniProt P02671 20-629; P02675 31-491; P02679 27-437) (ligand)

Reference: US20120252730A1, “PLATELET AGGREGATION INHIBITORS” (UNIVERSITY OF CHICAGO, priority 2009, published 2012)
